# According to PMC4628314:
# No constants are given. Whether binding was seen depends on the method and setting. Binding can be weak; no strength is given.
# T1: OsMPK3 (Oryza sativa) (UniProt A2XFC8)
# T1 sequence: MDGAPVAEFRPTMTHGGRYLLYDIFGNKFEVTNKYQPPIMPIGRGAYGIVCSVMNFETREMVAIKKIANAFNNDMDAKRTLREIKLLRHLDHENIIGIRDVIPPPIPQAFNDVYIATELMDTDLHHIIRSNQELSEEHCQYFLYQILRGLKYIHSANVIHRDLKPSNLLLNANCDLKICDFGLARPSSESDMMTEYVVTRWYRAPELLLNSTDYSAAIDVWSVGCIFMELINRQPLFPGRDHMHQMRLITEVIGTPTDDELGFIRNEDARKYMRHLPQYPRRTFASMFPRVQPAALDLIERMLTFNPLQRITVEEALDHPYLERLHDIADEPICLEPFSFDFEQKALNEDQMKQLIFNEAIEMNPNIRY
# Legend:
# OsMPK3 (Oryza sativa) = target: T1, OsMPK3 (Oryza sativa); experiment: two-hybrid; Matchmaker yeast two-hybrid, yeast AH109 co-transformed with pGADT7 (AD) and pGBKT7 (BD) constructs; colonies from SD/-Leu/-Trp streaked on SD/-Ade/-His/-Leu/-Trp (DDO); both orientations (swapping); blank vectors as controls
# [1] = target: OsAux/LAX1 (Oryza sativa auxin influx carrier) (Oryza sativa); experiment: as above
binding (OsMPK3 (Oryza sativa)),binding [1],Molecule
binds,–,OsAux/LAX1 (Oryza sativa auxin influx carrier)
–,binds,"OsMPK3 (enzyme, UniProt A2XFC8 1-369) MDGAPVAEFRPTMTHGGRYLLYDIFGNKFEVTNKYQPPIMPIGRGAYGIVCSVMNFETREMVAIKKIANAFNNDMDAKRTLREIKLLRHLDHENIIGIRDVIPPPIPQAFNDVYIATELMDTDLHHIIRSNQELSEEHCQYFLYQILRGLKYIHSANVIHRDLKPSNLLLNANCDLKICDFGLARPSSESDMMTEYVVTRWYRAPELLLNSTDYSAAIDVWSVGCIFMELINRQPLFPGRDHMHQMRLITEVIGTPTDDELGFIRNEDARKYMRHLPQYPRRTFASMFPRVQPAALDLIERMLTFNPLQRITVEEALDHPYLERLHDIADEPICLEPFSFDFEQKALNEDQMKQLIFNEAIEMNPNIRY"
